Experimental data as given in patent US20190328836A1.
These are yes or no findings as the source states them, for the method shown. In cells and extracts the contact can be indirect. Some entries that bind do so weakly or less than the wild type.

The chains behind the UniProt entries cited, without tags or fusion partners. Where a name states a change or a piece, a line headed by the entry shows the natural chain unless it says otherwise.
UniProt Q9JLV1: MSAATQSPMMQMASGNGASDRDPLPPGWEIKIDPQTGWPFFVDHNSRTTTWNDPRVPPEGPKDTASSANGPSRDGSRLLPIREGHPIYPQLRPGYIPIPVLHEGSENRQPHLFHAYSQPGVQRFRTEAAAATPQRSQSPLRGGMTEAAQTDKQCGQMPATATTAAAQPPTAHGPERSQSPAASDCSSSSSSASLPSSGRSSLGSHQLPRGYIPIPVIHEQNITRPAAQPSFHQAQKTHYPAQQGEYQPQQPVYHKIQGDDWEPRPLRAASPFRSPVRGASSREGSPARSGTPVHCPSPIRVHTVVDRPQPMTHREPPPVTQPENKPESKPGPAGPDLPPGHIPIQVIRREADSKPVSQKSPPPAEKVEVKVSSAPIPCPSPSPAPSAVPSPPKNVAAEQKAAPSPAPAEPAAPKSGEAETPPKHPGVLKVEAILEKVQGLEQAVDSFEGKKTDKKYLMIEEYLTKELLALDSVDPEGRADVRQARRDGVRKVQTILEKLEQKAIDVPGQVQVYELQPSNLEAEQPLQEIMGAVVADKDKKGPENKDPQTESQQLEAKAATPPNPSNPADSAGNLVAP

How the values were obtained:
[1] = target: T1, HspB8 (small heat shock protein) (mouse (BALB/c primary muscle cells)) (UniProt Q9JK92); experiment: co-immunoprecipitation of FLAG-BAG3 from total cell lysates, western blot (FIG. 8B)
T1 sequence (looked up): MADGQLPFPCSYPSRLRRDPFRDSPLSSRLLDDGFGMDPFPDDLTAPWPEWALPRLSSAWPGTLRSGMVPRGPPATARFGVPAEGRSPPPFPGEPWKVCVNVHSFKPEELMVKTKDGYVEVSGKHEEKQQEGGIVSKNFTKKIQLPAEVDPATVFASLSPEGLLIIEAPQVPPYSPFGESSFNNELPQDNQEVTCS

[2] = target: T1, HspB8 (small heat shock protein) (mouse (BALB/c primary muscle cells)); experiment: co-immunoprecipitation of FLAG-tagged BAG3 from BALB/c primary muscle cell lysates after experimental ischemia, western blot

Substance: BAG3^Ile81 (mouse Bcl-2-associated athanogene-3, BL6 variant with isoleucine at residue 81), C-terminal FLAG-tagged (from UniProt Q9JLV1 1-577)
- binding [1]: binds
- binding [2]: binds
